Source: article PMC9889334
These are yes or no findings as the source states them, for the method shown. Binding can be weak; no strength is given. Tags and fused reporters may be left off the sequences shown. For some of these results: Binding seen in cells or lysates may run through a third protein.

Key:
[1] = biological target: T1, PaPcc1 with C-terminal hexa-histidine tag (Pyrococcus abyssi Pcc1) (Pyrococcus abyssi) (UniProt Q9V1Z9); assay: co-purification (Ni-NTA affinity chromatography, then size exclusion chromatography); E. coli cells expressing untagged subunits and His6-tagged PaPcc1 or PaPcc2 mixed and lysed together; lysate heated at 65 °C; captured by the His6 tag on Ni-NTA at room temperature (20 mM Tris-HCl pH 8, 500 mM NaCl, 5 mM ß-mercaptoethanol, 10% glycerol), then SEC
T1 sequence: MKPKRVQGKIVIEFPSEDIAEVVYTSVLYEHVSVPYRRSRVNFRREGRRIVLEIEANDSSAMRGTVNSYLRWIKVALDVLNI

[2] = biological target: T1, PaPcc1 with C-terminal hexa-histidine tag (Pyrococcus abyssi Pcc1) (Pyrococcus abyssi); assay: crystal structure; PaPcc1-PaPcc2 at 7.9 mg/mL; 15% PEG 6K, 5% glycerol, 18 °C; 3.18 Å; both purified

PaBud32 (Pyrococcus abyssi Bud32) (enzyme)
binding [1]: binds

PaCgi121 (Pyrococcus abyssi Cgi121)
binding [1]: binds

PaPcc2 with C-terminal Strep-tag (Pyrococcus abyssi Pcc2)
binding [1]: binds | binding [2]: binds
